Measurements as given in the supplement of paper PMC7858590.
Values joined by “and” are separate entries in the source; they are usually repeats but may differ in a detail not shown here. Equal values may be shown once. Over roughly 3,800 compounds, “cell shape (eccentricity) Z-score vs DMSO control” has its median near 1.1; the lowest 2% begin near -4.7. The list shows a part of the results.

Tested on: human monocyte-derived macrophages (M0)
Assay: cell shape (eccentricity) Z-score vs DMSO control; higher = more elongated, M2-like morphology
Settings: 20 µM; 24 h; macrophage state: M0 (M-CSF)

SMILES	cell shape (Z-score)
CNC[C@@H]1Oc2ccc(NC(=O)CCN3CCOCC3)cc2CC(=O)N([C@H](C)CO)C[C@@H]1C	4.24
O=C1CC2(CCCC2)CC(=O)N1CCCCNCC1COc2ccccc2O1 (centres undefined)	1.11
CN1CC(=O)N=C1NC(=O)Nc1cccc(Cl)c1	2.53
C[C@@H]1CN([C@H](C)CO)C(=O)Cc2cc(NC(=O)Nc3ccc(F)cc3)ccc2O[C@@H]1CN(C)Cc1ccc(C(=O)O)cc1	2.38
CCCC(=O)Nc1ccc(OCC(O)CNC(C)C)c(C(C)=O)c1 (centres undefined)	1.65
CC(=O)O[C@H]1C[C@@H](OC(C)=O)C(C)(C)C2C[C@@H](O)[C@]3(C)C(CC[C@@]4(C)[C@H](c5ccoc5)OC(=O)C5OC543)[C@]21C (some centres undefined)	-2.16
CN1CCN(CCCN2c3ccccc3Sc3ccc(C(F)(F)F)cc32)CC1	-2.15 and -2.77
CC1CC[C@@]2(OC1)O[C@H]1CC3C4CC=C5C[C@@H](O[C@@H]6O[C@H](CO)[C@@H](O)[C@H](O)[C@H]6O)CC[C@]5(C)C4CC[C@]3(C)[C@@]1(O)[C@@H]2C (some centres undefined)	-1.33
CC(C)=CCC[C@](C)(O[C@@H]1O[C@H](CO[C@@H]2O[C@@H](CO)[C@H](O)[C@H]2O)[C@@H](O)[C@H](O)[C@H]1O)[C@H]1CC[C@]2(C)C1[C@H](O)CC1[C@@]3(C)CC[C@H](O[C@@H]4O[C@H](CO)[C@@H](O)[C@H](O)[C@H]4O[C@@H]4O[C@H](CO)[C@@H](O)[C@H](O)[C@H]4O)C(C)(C)C3CC[C@]12C (some centres undefined)	0.625
CC(C)(C)OC(=O)CN(Cc1ccc(Cl)cc1)Cc1ccc([N+](=O)[O-])s1	1.99
Cc1c(O)cc(O)c2c1OC(c1ccccc1)CC2=O (centres undefined)	1.66
Cc1cccc(C)c1NC(=O)C[N+](C)(C)C	-4.98
O=C(OCCN1CCCCC1)c1c[nH]c2ccccc12	1.25
C=C(C(=O)O)[C@@H]1CC[C@@]2(C)CC[C@H](O)[C@@]2(C(C)=O)C1	-4.55
OC[C@@]1(O)CO[C@H](OC[C@H]2O[C@@H](OC(CCCCc3ccc(O)cc3)CCc3ccc(O)cc3)[C@H](O[C@H]3OC[C@](O)(CO)[C@H]3O)[C@@H](O)[C@@H]2O)[C@@H]1O (some centres undefined)	1.27
CC1=CC(/C=C(\C)CCC(O)C(O)/C=C/C(=O)O)C2(O)C(=O)NC(CC(C)C)C2C1C (centres undefined)	2.58
C=C1C(=O)O[C@@H]2[C@H]1[C@H](O)C[C@]1(C)[C@@H](O)CC=C(C)[C@@H]21	-0.912
O=C(O)[C@H]1O[C@@H](Oc2c(-c3ccccc3)cc(O)c(-c3ccccc3)c2O)[C@H](O)[C@@H](O)[C@@H]1O	-0.539
CC(=O)O[C@H]1[C@H](Oc2ccccc2COC(=O)C2(O)C=CCCC2=O)O[C@H](CO)[C@@H](O)[C@@H]1O (some centres undefined)	1.32

Part of the list above, bar-delimited:
SMILES | cell shape (Z-score)
CN1CCN(CCCN2c3ccccc3Sc3ccc(C(F)(F)F)cc32)CC1 | -2.15 and -2.77
CC1CC[C@@]2(OC1)O[C@H]1CC3C4CC=C5C[C@@H](O[C@@H]6O[C@H](CO)[C@@H](O)[C@H](O)[C@H]6O)CC[C@]5(C)C4CC[C@]3(C)[C@@]1(O)[C@@H]2C (some centres undefined) | -1.33
